# PubChem BioAssay AID493014 (National Center for Advancing Translational Sciences (NCATS), 2011)
# The list shows a part of the results. These are further read-outs of the screen, such as a control signal, another cell line or another target. No call is given for them. The list favours compounds with an active or inconclusive main result. The note in brackets gives the kind of curve behind each potency; many fits are weak.
# Assay: qHTS Assay to Find Inhibitors of Chronic Active B-Cell Receptor Signaling
# Settings: ABC-DLBCL IkBa-CBG/CBR reporter, luminescence ratio (green luciferase fused to IkBa over red control in TMD8 lymphoma cells), 4 h
# Procedure, shortened: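 TMD8 ABC-DLBCL cells carrying doxycycline-inducible green luciferase fused to IkappaBalpha plus unfused red luciferase were exposed to compounds (up to 46 uM) for 4 hrs at 37C. Activity came from the overlap-corrected green/red luminescence ratio.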
# [1] = measured here: CBR red luminescence, cell number
# [2] = measured here: IkBa-CBG green luminescence
SMILES,AC50 [1],AC50 [2]
CCOC(=O)C1=C(C)N(c2ccccc2)C(=O)C1,"4.61 µM [falling, single point]",
CC(C)(C)c1ccc(NC(=O)COC(=O)C2(C)CC2(Cl)Cl)cc1 (stereo not given),"35.5 µM [falling, single point]",
O=C(NCc1ccccc1Cl)C(=O)NCC(c1ccco1)N1CCOCC1 (stereo not given),"14.1 µM [falling, partial curve, poor fit]",
CC(=O)c1nnn(-c2nc(N3CCCC3)nc(N(c3ccccc3)c3ccccc3)n2)c1C,"6.51 µM [falling, single point]","5.8 µM [rising, partial curve, poor fit]"
CCCc1cc(=O)[nH]c(SCc2ccc(Cl)cc2)n1,"18.4 µM [falling, single point]",
O=C(CCCN1C(=O)/C(=C/c2cccs2)SC1=S)Nc1cccc(O)c1,"0.316 µM [falling, full curve, poor fit]",
N/C(=N/OCc1cccc([N+](=O)[O-])c1)c1nonc1N,"5.17 µM [rising, full curve]",
N=C1CCCN1CC(=O)c1ccc(Br)cc1,"14.6 µM [rising, partial curve]",
COc1ccc(CN(Cc2ccccn2)S(=O)(=O)c2ccc(-n3cnnn3)cc2)cc1,"2.82 µM [rising, partial curve, poor fit]",
O=C(COC(=O)CNC(=O)c1ccccc1Cl)NC1CCCC1,"25.9 µM [rising, single point]",
CCN(CC)C(=S)SSC(=S)N(CC)CC,"11.2 µM [rising, partial curve, poor fit]","0.184 µM [falling, full curve, poor fit]"
CC(=O)C1C(=O)CC(c2ccc(Cl)cc2)CC1=O (stereo not given),"12.6 µM [rising, single point]",
CCN(CC)c1ncnc2c1sc1nc(C)cc(C)c12,"3.55 µM [rising, single point]",
CCOCCOC(=O)C(C)Sc1n[nH]c(=O)[nH]c1=O (stereo not given),"16.4 µM [rising, partial curve, poor fit]",
Clc1ccc(CCNc2ncnc3c2c(-c2ccccc2)cn3-c2ccccc2)cc1,"11.2 µM [rising, partial curve]",
Cc1ccc(Nc2ncccc2C(N)=O)cc1[N+](=O)[O-],"0.411 µM [rising, full curve]",
Oc1cc(-n2cccn2)c(O)cc1-n1cccn1,"10 µM [falling, partial curve]","15.8 µM [rising, single point]"
CCN1CCN(CC2CC3C=CC2C3)CC1 (stereo not given),"29.1 µM [falling, single point]",
O=C(Nc1ccccc1N1CCCC1)c1cc2ccccc2o1,"0.013 µM [falling, full curve, poor fit]",
Cc1cc(C(=O)CCC(=O)NNC(=O)c2ccccc2O)c(C)s1,"16.4 µM [falling, single point]",
COCCn1nnnc1C(C(C)C)N(Cc1cccnc1)Cc1ccccc1Cl (stereo not given),"0.461 µM [falling, partial curve, poor fit]",

SMILES,AC50 [1],AC50 [2]
CC(C)C(NC(=O)C1CCCCC1)C(=O)Nc1ccc2c(c1)OCCO2 (stereo not given),"6.31 µM [rising, single point]",
O=C(Nc1ccccc1N1CCCCC1)c1ccc(OC(F)F)cc1,"11.2 µM [rising, partial curve]",
CCOc1nc(C)cc(C)c1S(=O)(=O)c1ccc(Cl)cc1,"0.1 µM [rising, full curve, poor fit]",
CCn1c(=O)c2cc(C(=O)Nc3ccccc3OC)sc2c2ccccc21,"0.282 µM [falling, full curve]",
Cc1ccc(/C=N/NC(=O)C(O)c2ccccc2)o1 (stereo not given),"10 µM [falling, partial curve, poor fit]",
Cc1noc(NS(=O)(=O)c2ccc(N/C=C/C(=O)c3cccnc3)cc2)c1C,"18.4 µM [rising, partial curve, poor fit]",
COc1cccc(/C=N/Nc2cc(C)nc(-c3ccccc3O)n2)c1O,"5.01 µM [falling, full curve]","3.55 µM [rising, full curve]"
COc1ccccc1N1CCN(C(=O)c2oc3cc(C)c(C)cc3c2C)CC1,"0.92 µM [falling, full curve, poor fit]",
Cn1nc(-c2ccccc2)cc1NC(=O)c1ccc(Cl)cc1,"20.6 µM [rising, single point]",
COn1c(=O)c(-c2cccs2)[n+]([O-])c2ccccc21,"1.41 µM [rising, partial curve, poor fit]",
CCc1cc2c(NCC(=O)O)ncnc2s1,"9.2 µM [rising, partial curve, poor fit]",
Cc1cc(C)cc(C(=O)OCC(=O)NCCNC(=O)COC(=O)c2cc(C)cc(C)c2)c1,"12.6 µM [falling, single point]",
COc1ccc(OC)c(CN2CCN(C(=O)c3cccc(S(=O)(=O)Nc4ccccc4OC)c3)CC2)c1,"6.51 µM [falling, partial curve]",
Cc1ccc(-n2ncc3c(NCCCOC(C)C)ncnc32)c(C)c1,"25.1 µM [falling, partial curve, poor fit]",
O=C(Nc1cccc2c1CCCC2)c1ccccc1Br,"2 µM [rising, full curve, poor fit]",
Fc1ccc(C2c3[nH]c4ccccc4c3CCN2CCCn2cccn2)cc1 (stereo not given),"11.2 µM [falling, partial curve, poor fit]","14.1 µM [rising, partial curve, poor fit]"
Cc1nc(SCc2ccc(Cl)c(Cl)c2)ncc1C(=O)O,"22.4 µM [falling, single point]",
CCc1noc(C)c1C(=O)NNC(=O)COc1cc(C)ccc1C,"23.1 µM [rising, single point]","29.1 µM [falling, partial curve, poor fit]"
CCC(C)NS(=O)(=O)c1ccc(OCC(=O)Nc2ccc(F)cc2F)cc1 (stereo not given),"0.0517 µM [rising, full curve, poor fit]",
Cc1cccc(NC(=O)CS(=O)(=O)c2cn(C)c3ccccc23)c1C,"29.1 µM [falling, single point]",
CCOc1ccc(NC(=O)c2cc3n(n2)C(C(F)(F)F)CC(c2ccco2)N3)cc1 (stereo not given),"4.47 µM [rising, partial curve, poor fit]",

# Taken from above.
# Under AC50 [1], CCOc1ccc(NC(=O)c2cc3n(n2)C(C(F)(F)F)CC(c2ccco2)N3)cc1 (stereo not given) is entered as 4.47 µM [rising, partial curve, poor fit]
# Under AC50 [1], CC(=O)c1nnn(-c2nc(N3CCCC3)nc(N(c3ccccc3)c3ccccc3)n2)c1C is entered as 6.51 µM [falling, single point]
# Under AC50 [1], CCN(CC)C(=S)SSC(=S)N(CC)CC is entered as 11.2 µM [rising, partial curve, poor fit]

# For reference, part of the list above.
SMILES,AC50 [1],AC50 [2]
CCC(C)NS(=O)(=O)c1ccc(OCC(=O)Nc2ccc(F)cc2F)cc1 (stereo not given),"0.0517 µM [rising, full curve, poor fit]",
Cc1cccc(NC(=O)CS(=O)(=O)c2cn(C)c3ccccc23)c1C,"29.1 µM [falling, single point]",

# The list goes on:

SMILES,AC50 [1],AC50 [2]
CCOc1cc(/C=C/C(=O)c2ccc(O)cc2)ccc1OCC(=O)N(C)C,"20.6 µM [falling, partial curve]",
O=C(O)C1CCCCC1C(=O)Nc1cccc(Cl)c1Cl (stereo not given),"5.62 µM [rising, single point]",
Cc1ccc(NC(=O)C(C)OC(=O)CCC2CCCCC2)cc1 (stereo not given),"29.1 µM [falling, single point]",
CCN(C(=O)c1cc2ccccc2oc1=O)c1ccccc1,"29.1 µM [falling, single point]",
NC(=O)C1CCN(C(=O)c2ccc3nc(N4CCCCC4)sc3c2)CC1,"35.5 µM [rising, single point]",
COc1cc2c(OC(C)=O)c3c(c(-c4ccc5c(c4)OCO5)c2cc1OC)C(=O)OC3,"3.55 µM [rising, full curve]",
COc1ccc(NC(=O)OCCN2CCN(Cc3ccccc3)CCC2=O)cc1,"14.6 µM [rising, partial curve, poor fit]",
C=CCn1c(N)c(C(=O)OCCC)c2nc3ccccc3nc21,"6.31 µM [falling, full curve, poor fit]",
CC1CCN(C2CC(=O)N(c3ccc(Br)cc3Br)C2=O)CC1 (stereo not given),"7.94 µM [falling, partial curve, poor fit]",
c1ccc(-n2ncc3c(NC4CCCC4)ncnc32)cc1,"2.51 µM [falling, full curve]","0.631 µM [rising, full curve]"
COc1ccc2nc(NC(=O)c3cccc(N4C(=O)CCC4=O)c3)sc2c1,"9.2 µM [falling, partial curve, poor fit]",
CCOC(=O)N1CCN(c2ncnc3scc(-c4ccccc4)c23)CC1,"6.31 µM [falling, partial curve, poor fit]",
CC1CCc2c(sc3ncnc(SC(C)C(=O)NCC4CCCO4)c23)C1 (stereo not given),"29.1 µM [falling, single point]",
Cc1ccc(OCc2cc(C(=O)NCCn3cccn3)no2)cc1C,"22.4 µM [falling, single point]",
COCCOC(=O)C1=C(N)OC2=C(C(=O)CCC2)C1c1cccnc1 (stereo not given),"0.224 µM [falling, full curve, poor fit]",
Cn1c(SCC(=O)N/N=C/c2cccs2)nc2ccccc21,"2.59 µM [rising, partial curve, poor fit]",
NC(=O)c1ccccc1NS(=O)(=O)Cc1ccc(Cl)cc1,"0.651 µM [rising, full curve]",
Cc1ccc(-c2ccnc3[nH]n(-c4ccccc4)c(=O)c23)cc1,"8.91 µM [falling, partial curve, poor fit]",
COc1ccc(COc2ccccc2C(=O)NCc2ccccc2)cc1F,"2.91 µM [falling, partial curve]",
COC(=O)c1cc2n(n1)CCN(Cc1ccccc1F)C2=O,"31.6 µM [falling, single point]",
CCOC(=O)c1sc(NC(=O)CSc2nnnn2-c2ccc(C)cc2)c(C(=O)OCC)c1C,"0.92 µM [rising, partial curve]",
